# According to PubChem BioAssay AID2685 (National Center for Advancing Translational Sciences (NCATS), 2010):
# The list shows a part of the results. The main result of the screen is listed elsewhere. These columns were measured beside it and carry no call. The list favours compounds with an active or inconclusive main result. Potencies come from curve fits of mixed quality, noted in brackets.
# Assay: qHTS Assay for Lipid Storage Modulators in Drosophila S3 Cells;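 on cell number change: cells counted by Cell Tracker Red CMTPX staining in the red channel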
# Conditions: BODIPY lipid droplet fluorescence, 18-24 h; for cell number change: measured here: cell count max response, cells fed with added oleic acid
# Outline: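 Drosophila S3 cells loaded with oleic acid (400 uM, as added) and compounds at several concentrations; lipid droplets imaged by 488-nm laser-scanning cytometry, 500–530 nm intensity and object ratio to cell channel. Percent activity normalized to 20 uM Triacsin C.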
# [1] = measured here: lipid fluorescence (Fed channel) AC50, cells fed with added oleic acid
# [2] = measured here: cell number channel AC50, cells fed with added oleic acid
SMILES,cell number change,AC50 [1],AC50 [2]
CC(=O)Nc1ccc(NC(=O)C(C)Sc2n[nH]c(-c3cccs3)n2)cc1 (centres undefined),11.8%,"23.1 µM [rising, single point]",–
COc1cccc(C(=O)NNC(=O)C(=O)Nc2cccc3ccccc23)c1,111%,–,"23.1 µM [rising, partial curve]"
CC(CCc1ccccc1)NCC#N (centres undefined),-21.2%,"8.2 µM [falling, partial curve]",–
O=C(c1cccc(S(=O)(=O)Nc2ccccc2Cl)c1)N1CCN(C(=O)c2ccco2)CC1,20.4%,–,–
CC(=O)c1ccc(NC(=O)C2(c3ccccc3)CCOCC2)cc1,-4.46%,–,–
O=c1c2c3nc4ccccc4nc3n(-c3ccc4c(c3)OCCO4)c2ncn1C1CCCC1,-4.83%,–,–
COc1ccc(C(=O)NNC(=O)CSc2nnc(-c3cccnc3)n2C)cc1,1.85%,–,–
COc1ccc(N2C(=O)C3CCCN3C2=O)cc1 (centres undefined),–,"2.91 µM [falling, full curve]",–
O=C(C(Cc1ccccc1)n1cccc1)N1CCN(c2cccc(Cl)c2)CC1 (centres undefined),17.1%,"16.4 µM [rising, single point]",–
CCOC(=O)Cc1csc(NC(=O)c2sc3nc4ccc(C)cc4cc3c2N)n1,138%,"29.1 µM [falling, single point]","23.1 µM [rising, partial curve]"
O=C(c1ccc(S(=O)(=O)N2CCCC2)cc1)N(c1ccc(F)cc1)C1C=CS(=O)(=O)C1 (centres undefined),-20.3%,–,–
Cc1csc(NC(=O)CSc2nc3sc(C)c(C)c3c(=O)[nH]2)n1,8.26%,"0.0366 µM [falling, full curve, poor fit]",–
O=C(CSc1ccc2nnc(-c3cccnc3)n2n1)Nc1ccc(F)cc1,-5.49%,"25.9 µM [falling, partial curve, poor fit]",–
CN(C)Cc1c(C(=O)N/N=C/c2ccc(OCc3c(F)cccc3Cl)cc2)nnn1-c1nonc1N,7.55%,"6.51 µM [falling, single point]",–
c1ccc(SCc2nc3ccccc3[nH]2)nc1,35.2%,–,"5.17 µM [rising, single point]"
C=CCN1C(=O)C2(OCCCO2)c2cc(Cl)ccc21,–,"29.1 µM [falling, single point]",–
Cc1cccc(C(=O)OCC(=O)N2CCCCCC2)c1,-14.2%,–,–
O=C(COc1ccc(Cl)cc1)NCCNC(=O)c1cnccn1,15.8%,"20 µM [falling, single point]",–
O=C(Nc1ccc2c(c1)OCCO2)NC12CC3CC(CC(C3)C1)C2,-0.517%,"0.82 µM [rising, partial curve, poor fit]",–
Cc1ccc(NC2=C/C(=N\S(=O)(=O)c3cccs3)c3ccccc3C2=O)c(C)c1,-1.68%,"3.26 µM [falling, partial curve]","2.59 µM [falling, partial curve]"

SMILES,cell number change,AC50 [1],AC50 [2]
CCN(CC)Cc1cc(NC2=NS(=O)(=O)c3ccccc32)ccc1OC(=O)c1ccccc1,-14.6%,"29.1 µM [falling, single point]",–
COc1cccc2cc(C(C)N(CCCN3CCOCC3)C(=S)Nc3ccc(C)c(C)c3)oc12 (centres undefined),–,"0.651 µM [rising, single point]","0.164 µM [rising, full curve, poor fit]"
O=C(NCCN1CCOCC1)c1c(O)nc2sccn2c1=O,2.41%,–,–
Cc1ccc(-n2c(C)cc(-c3csc(N)n3)c2C)cc1,2.83%,–,–
COCCCNC(=O)CCCC(=O)NCCCOC,-4.45%,"0.00517 µM [falling, full curve, poor fit]",–
CC(C)N(C(=O)C1CC(=O)OC12CCCCC2)C(C)C (centres undefined),13%,"32.6 µM [falling, single point]",–
C=CCNCCOCCOc1ccc(C)cc1Br,-23.6%,–,"6.51 µM [falling, partial curve, poor fit]"
COC(=O)C1=C(C)NC(=O)/C1=C\c1cc(C)n(-c2ccccc2F)c1C,-10%,"0.0058 µM [falling, full curve]","0.58 µM [falling, partial curve]"
CCC1Nc2ncnc(N3CCN(c4ccccc4)CC3)c2N(Cc2ccc(Cl)cc2)C1=O (centres undefined),-22.4%,"20.6 µM [falling, single point]",–
CCCCOc1ccc2c(c1)/C(=C(\C(Cl)=C(Cl)Cl)[N+](=O)[O-])N2,-42.1%,"29.1 µM [falling, single point]","29.1 µM [falling, single point]"
COc1cccc(CN(C)C(=O)c2ccc3c(=O)n4c(nc3c2)CCC4)c1,12.3%,"29.1 µM [falling, single point]",–
CN(C)CCCNC(=S)N1CCn2c(nc3ccccc32)C1,12.8%,"6.51 µM [falling, single point]",–
CN(C)S(=O)(=O)c1cccc(NC(=O)COc2nc3ccccc3nc2N2CCOCC2)c1,–,"0.103 µM [falling, full curve, poor fit]",–
CC1=NN(C(=O)c2ccc(Cn3nc(C)cc3C)o2)C(O)(C(F)(F)F)C1 (centres undefined),45.1%,"0.58 µM [rising, single point]","16.4 µM [rising, single point]"
CCCCC(=O)Nc1ccc(NC(=O)c2cc(OC)c(OC)c(OC)c2)cn1,4.19%,–,–
O=C(O)c1cccc2sc3cc(Cl)ccc3c(=O)c12,-1.58%,"20.6 µM [rising, single point]",–
Cc1c(Br)c([N+](=O)[O-])nn1CCCC(=O)N1CCN(c2ccccc2)CC1,-2.46%,"1.64 µM [rising, partial curve]",–
O=C(OCc1nc2scc(-c3ccccc3)c2c(=O)[nH]1)c1cc([N+](=O)[O-])ccc1Cl,5.21%,"2.91 µM [rising, single point]",–
CC(C)Oc1ccc(C(=O)NN2C(=O)NC3(CCCCC3)C2=O)cc1,-30.3%,"29.1 µM [falling, single point]","0.259 µM [falling, single point]"
O=C(CSc1nnnn1C1CCCCC1)NCc1ccccc1,24.1%,"16.4 µM [rising, partial curve, poor fit]",–

# Some of the entries above, set out differently.
SMILES	cell number change	AC50 [1]	AC50 [2]
CCN(CC)Cc1cc(NC2=NS(=O)(=O)c3ccccc32)ccc1OC(=O)c1ccccc1	-14.6%	29.1 µM [falling, single point]	–
COc1cccc2cc(C(C)N(CCCN3CCOCC3)C(=S)Nc3ccc(C)c(C)c3)oc12 (centres undefined)	–	0.651 µM [rising, single point]	0.164 µM [rising, full curve, poor fit]
